In patent US11254705B2 (Sirenas LLC, priority 2016, dated 2022):

Test: general procedure: solution-phase peptide synthesis; EDC/DMAP (esterification); EDC/HOAt (macrolactamisation)
Settings: late stage modification step

Question: Which step yield does the source give for “(2R,5S,8R,14S,17R,20S,21S,22S,E)-8-benzyl-20-((E)-but-2-en-2-yl)-14-((R)-sec-butyl)-2-isobutyl-5,7,10,17,21,25-hexamethyl-3,6,9,12,15,18,26-heptaoxo-1,19-dioxa-4,7,10,13,16-pentaazacyclohexacos-24-en-22-yl (3-hydroxypropyl)carbamate” here?
Answer: Its step yield is 37.4%.
